# At least one structure is not confirmed: it was looked up by name or label, or the drawing left a doubt.
# Test system: myelin-ECs (BMECs)
# Test: Myelin degradation into neutral lipids (Oil Red O staining) in myelin-BMECs after autophagy drug treatment
# Assay type: cell-based, mouse
# Conditions: 3-MA 2 mM 48 hr (1 mM elsewhere in the source), chloroquine 10 μM 24 hr, rapamycin 1 μM 24 hr
# Method: Oil Red O (ORO) staining. ORO staining was performed to detect intracellular neutral lipid accumulation in injured spinal cords and cultured BMECs. Spinal frozen sections or fixed cells were dehydrated in 100% propylene glycol for 5 min, then stained with 0.5% ORO solution at 60° C. for 8 min. The samples were then processed with 85% propylene glycol for 5 min followed by distilled water rinsing for 3 times. Stained samples were imaged with a confocal laser scanning microscope. Starvation and drug treatments for autophagy assays. BMECs cultured with 5% FBS containing medium were used as negative control for autophagy. The positive control for autophagy induction, BMECs, were starved with Hanks Balanced Salt Solution for 6 hr to induce autophagy. 10 μM chloroquine, an inhibitor of lysosomes, or 1 μM of rapamycin, an inducer of autophagy, was added to BMECs cultures for 24 hr after myelin debris treatment. 2 mM of 3-MA, a PI3K inhibitor of autophagy was cultured with ECs for 48 hr, starting from the last 24 hr treatment of myelin debris to the subsequent 24 hr of medium wash. Cells grown on coverslips were fixed and stained with Oil Red 0 for detection of myelin-derived lipids as above described.
smiles,measurement,value
CO[C@H]1C[C@@H]2CC[C@@H](C)[C@@](O)(O2)C(=O)C(=O)N2CCCC[C@H]2C(=O)O[C@H]([C@H](C)C[C@@H]2CC[C@@H](O)[C@H](OC)C2)CC(=O)[C@H](C)/C=C(\C)[C@@H](O)[C@@H](OC)C(=O)[C@H](C)C[C@H](C)/C=C/C=C/C=C/1C [rapamycin],myelin degradation into neutral lipids (ORO+ lipids) in myelin-ECs,accelerated myelin degradation
